# Results are given in words; binding and its absence hold for the method and conditions named. In cells and extracts the contact can be indirect. Some results given as binding are weak or reduced against the parent protein; the word gives no strength.
# By UniProt entry, the sequences of proteins in these tests, tags left out.
# UniProt Q13620: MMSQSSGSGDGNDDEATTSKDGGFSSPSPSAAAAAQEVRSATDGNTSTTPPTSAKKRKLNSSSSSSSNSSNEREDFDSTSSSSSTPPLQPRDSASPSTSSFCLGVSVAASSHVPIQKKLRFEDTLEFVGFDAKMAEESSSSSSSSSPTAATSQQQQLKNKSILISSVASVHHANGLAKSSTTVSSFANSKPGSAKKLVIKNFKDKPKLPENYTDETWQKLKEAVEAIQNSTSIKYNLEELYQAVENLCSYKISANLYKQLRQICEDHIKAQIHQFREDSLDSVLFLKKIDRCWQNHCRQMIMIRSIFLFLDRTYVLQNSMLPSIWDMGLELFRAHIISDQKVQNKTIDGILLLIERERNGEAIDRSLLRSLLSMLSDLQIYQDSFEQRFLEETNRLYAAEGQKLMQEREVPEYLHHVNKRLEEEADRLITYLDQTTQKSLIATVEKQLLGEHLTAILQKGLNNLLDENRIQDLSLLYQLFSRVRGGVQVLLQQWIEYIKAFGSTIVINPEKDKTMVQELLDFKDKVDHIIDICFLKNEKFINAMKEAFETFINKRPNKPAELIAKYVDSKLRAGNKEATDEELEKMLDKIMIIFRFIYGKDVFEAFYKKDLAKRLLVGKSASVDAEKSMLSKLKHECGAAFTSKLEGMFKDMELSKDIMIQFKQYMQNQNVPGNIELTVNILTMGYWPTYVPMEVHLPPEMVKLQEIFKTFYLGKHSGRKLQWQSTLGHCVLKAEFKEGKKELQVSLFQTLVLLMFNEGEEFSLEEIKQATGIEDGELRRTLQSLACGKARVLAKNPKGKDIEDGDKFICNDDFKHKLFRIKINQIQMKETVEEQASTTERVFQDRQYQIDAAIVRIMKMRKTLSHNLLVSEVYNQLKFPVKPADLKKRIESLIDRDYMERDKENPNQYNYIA
# Assays:
# [1] = target: CUL4B (endogenous) (human (endogenous in U2OS)) (UniProt Q13620); experiment: co-IP; immunoprecipitation with antibodies directed against endogenous CUL4A and CUL4B (Supplementary Fig. 1c)
# [2] = target: CUL4A (endogenous) (human (endogenous in U2OS)) (UniProt Q13619); experiment: as above
# [3] = target: FLAG-tagged full-length RepID (replication initiation determinant protein) (UniProt Q8WWQ0); experiment: co-IP; FLAG immunoprecipitation (anti-FLAG antibody / FLAG-agarose beads) of soluble nuclear and chromatin-bound fractions of U2OS cells expressing FLAG-RepID fragments; overnight at 4 °C, washed three times with PBS; co-precipitated cullins detected by immunoblot
Substance,binding [1],binding [2],binding [3]
RepID (co-precipitated with antibodies against endogenous CUL4A and CUL4B) (from UniProt Q8WWQ0 1-1821),binds,binds,
CUL4A (endogenous) (from UniProt Q13619 1-759),,,binds
CUL4B (endogenous) (from UniProt Q13620 1-913),,,binds

# Reference: publication PMC6050238
